Laboratory results reported in PubChem BioAssay AID270 (DTP/NCI, 2004).
The list is a part of this screen's results and no random one: it is rich in T/C values a quarter to a half above the control, in often repeated tests (any T/C) and in doses without a T/C. Further doses and runs are listed elsewhere. T/C: endpoint of the treated group in % of that of the vehicle group. Schedule codes are those of the source, read here as Q, the interval in days (D) or hours (H), X, the number of doses. Some entries give survivors of the animals treated and no T/C: the source holds a T/C of zero for them, seemingly a mark for toxic or unscored doses. Some doses without a T/C left all or most animals alive at the check, yet need not have been tolerated: the source hardly ever lists a survival T/C far under the control, and the zero likely stands for such cases as well. Counts of survivors are from the toxicity check (mostly the fifth day) where no day follows; animals may have died later. Additions like (4×) give the number of equal values in this list. Some entries hold several experiments; the results are listed from low to high. For survival time, the PubChem record calls one and a half times the control and up active, and a quarter to a half above the control has no call in these data; cut-offs in other NCI protocols can differ. Some T/C values carry the count of animals alive at the toxicity check (mostly the fifth day); where none is given, no animal had died by that day.

System: BDF1 mice, s.c. Lewis lung carcinoma, T/C %
Test: NCI In Vivo Anticancer Drug Screen. Data for tumor model Lewis Lung Carcinoma (subcutaneous) in B6D2F1 (BDF1) mice
Outline: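 First, mice carry a transplantable tumor. Next, groups receive either compound or vehicle. Finally, survival or tumor dimensions in the dosed animals are divided by the corresponding control figure.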

[1] = T/C endpoint: median survival time, dose: 9.4 mg/kg/injection, schedule: Q01DX009 (ip), vehicle: saline with Tween-80, higher T/C = longer survival
[2] = T/C endpoint: median survival time, dose: 1.0 mg/kg/injection, schedule: Q01DX009 (ip), vehicle: saline, higher T/C = longer survival
[3] = T/C endpoint: median survival time, dose: 16.0 mg/kg/injection, schedule: Q01DX009 (ip), vehicle: saline, higher T/C = longer survival
[4] = T/C endpoint: median survival time, dose: 32.0 mg/kg/injection, schedule: Q01DX009 (ip), vehicle: saline, higher T/C = longer survival
[5] = T/C endpoint: median survival time, dose: 200.0 mg/kg/injection, schedule: Q01DX009 (ip), vehicle: saline with Tween-80, higher T/C = longer survival

In the case of `CS(C)=O`, the survivor count (T/C endpoint: median survival time, dose: 1.5 grams/kg/injection, schedule: Q01DX009 (ip), vehicle: saline, higher T/C = longer survival) is reported as 4 of 10.

For `CS(=O)(=O)OCCCNCCCOS(C)(=O)=O`, the survivor count (T/C endpoint: mean tumor weight, dose: 80.0 mg/kg/injection, schedule: Q01DX011 (ip), vehicle: saline, higher T/C = larger tumour) was 3 of 6, the survivor count (T/C endpoint: median survival time, dose: 40.0 mg/kg/injection, schedule: Q01DX009 (ip), vehicle: saline, higher T/C = longer survival) was 10 of 10 and the survivor count (T/C endpoint: median survival time, dose: 80.0 mg/kg/injection, schedule: Q01DX009 (ip), vehicle: saline, higher T/C = longer survival) was 10 of 10. For the same compound, the survivor count (T/C endpoint: median survival time, dose: 160.0 mg/kg/injection, schedule: Q01DX009 (ip), vehicle: saline, higher T/C = longer survival) was 9 of 10.

For `O=NN(CCCl)C(=O)Nc1ccc2[nH]c3ccccc3c2c1`, the T/C (T/C endpoint: median survival time, dose: 32.5 mg/kg/injection, schedule: Q01DX009 (ip), vehicle: Klucel (hydroxypropylcellulose) (HPC), higher T/C = longer survival) was 139 % of control, the T/C (T/C endpoint: median survival time, dose: 65.0 mg/kg/injection, schedule: Q01DX009 (ip), vehicle: Klucel (hydroxypropylcellulose) (HPC), higher T/C = longer survival) was 128 % of control and the T/C (T/C endpoint: median survival time, dose: 130.0 mg/kg/injection, schedule: Q01DX009 (ip), vehicle: Klucel (hydroxypropylcellulose) (HPC), higher T/C = longer survival) was 145 % of control. The survivor count (T/C endpoint: median survival time, dose: 260.0 mg/kg/injection, schedule: Q01DX009 (ip), vehicle: Klucel (hydroxypropylcellulose) (HPC), higher T/C = longer survival) was 6 of 10.

`O=[N+]([O-])c1cccc([N+](=O)[O-])c1Cl` was tested, and the T/C (T/C endpoint: mean tumor weight, dose: 83.0 mg/kg/injection, schedule: Q01DX011 (ip), vehicle: other, evaluated on day 12, higher T/C = larger tumour) was 129 % of control and the survivor count (T/C endpoint: mean tumor weight, dose: 125.0 mg/kg/injection, schedule: Q01DX011 (ip), vehicle: other, higher T/C = larger tumour) was 2 of 6.

With `NC(=S)N/N=C/c1ccc(O)cn1` the T/C [1] was 131 % of control, the survivor count [1] was 10 of 10 and the T/C (T/C endpoint: median survival time, dose: 18.8 mg/kg/injection, schedule: Q01DX009 (ip), vehicle: saline with Tween-80, higher T/C = longer survival) was 129 % of control. The T/C (T/C endpoint: median survival time, dose: 75.0 mg/kg/injection, schedule: Q01DX009 (ip), vehicle: saline with Tween-80, higher T/C = longer survival) was 139 % of control and the survivor count (T/C endpoint: median survival time, dose: 150.0 mg/kg/injection, schedule: Q01DX009 (ip), vehicle: saline with Tween-80, higher T/C = longer survival) was 10 of 10.

With `Nc1nc([Se])c2ncn(C3OC(CO)C(O)C3O)c2n1` (stereo not given) the T/C [2] was 96 and 103 % of control, the survivor count [2] was 10 of 10 (2×) and the T/C (T/C endpoint: median survival time, dose: 2.0 mg/kg/injection, schedule: Q01DX009 (ip), vehicle: saline, evaluated on day 60, higher T/C = longer survival) was 89, 100, 112 % of control. For the same compound, the T/C (T/C endpoint: median survival time, dose: 2.0 mg/kg/injection, schedule: Q01DX009 (ip), vehicle: saline, evaluated on day 70, higher T/C = longer survival) was 98 % of control [9 of 10 alive], the T/C (T/C endpoint: median survival time, dose: 4.0 mg/kg/injection, schedule: Q01DX009 (ip), vehicle: saline, evaluated on day 60, higher T/C = longer survival) was 94, 101, 120 % of control and the T/C (T/C endpoint: median survival time, dose: 4.0 mg/kg/injection, schedule: Q01DX009 (ip), vehicle: saline, evaluated on day 70, higher T/C = longer survival) was 105 % of control. The T/C (T/C endpoint: median survival time, dose: 8.0 mg/kg/injection, schedule: Q01DX009 (ip), vehicle: saline, evaluated on day 60, higher T/C = longer survival) was 107, 111, 111 % of control [9 of 10 alive], the T/C (T/C endpoint: median survival time, dose: 8.0 mg/kg/injection, schedule: Q01DX009 (ip), vehicle: saline, evaluated on day 70, higher T/C = longer survival) was 95 % of control and the T/C [3] was 124, 127, 134 % of control. For the same compound, the survivor count [3] was 10 of 10, the T/C [4] was 97, 134, 165 % of control and the survivor count [4] was 10 of 10. The survivor count (T/C endpoint: median survival time, dose: 64.0 mg/kg/injection, schedule: Q01DX009 (ip), vehicle: saline, higher T/C = longer survival) was 6 of 10 and 9 of 10 (2×).

In the case of `COc1cc(-c2cc(=O)c3c(OC)c(OC)c(OC)c(OC)c3o2)cc(OC)c1OC`, the survivor count (T/C endpoint: mean tumor weight, dose: 400.0 mg/kg/injection, schedule: Q01DX010 (sc), vehicle: steroid suspending solution, higher T/C = larger tumour) is reported as 3 of 6.

With `O=c1cc(-c2ccccc2)oc2ccc(O)cc12` the T/C (T/C endpoint: mean tumor weight, dose: 12.5 mg/kg/injection, schedule: Q01DX011 (ip), vehicle: saline, evaluated on day 12, higher T/C = larger tumour) was 131 % of control.

`CC(=O)O[C@H]1C(=O)[C@@]2(C)[C@H]([C@H](OC(=O)c3ccccc3)[C@]3(O)C[C@H](OC(=O)[C@H](O)[C@@H](NC(=O)c4ccccc4)c4ccccc4)C(C)=C1C3(C)C)[C@]1(OC(C)=O)CO[C@@H]1C[C@@H]2O` was tested, and the survivor count (T/C endpoint: median survival time, dose: 9.0 mg/kg/injection, schedule: Q01DX009 (ip), vehicle: Klucel (hydroxypropylcellulose) (HPC), higher T/C = longer survival) was 10 of 10 and the survivor count (T/C endpoint: median survival time, dose: 24.0 mg/kg/injection, schedule: Q04DX003 (ip), vehicle: Klucel (hydroxypropylcellulose) (HPC), higher T/C = longer survival) was 10 of 10.

In the case of `Cc1nn(-c2ccccc2)c(N)c1C#N`, the survivor count (T/C endpoint: median survival time, dose: 50.0 mg/kg/injection, schedule: Q01DX009 (ip), vehicle: other, higher T/C = longer survival) is reported as 10 of 10.

With `C/C=C(\C)C(=O)O[C@@H]1c2cc3c(cc2-c2c(cc(OC)c(OC)c2OC)[C@@H]2C(=O)OC[C@@H]12)OCO3` the survivor count (T/C endpoint: median survival time, dose: 10.0 mg/kg/injection, schedule: Q01DX009 (ip), vehicle: Klucel (hydroxypropylcellulose) (HPC), higher T/C = longer survival) was 10 of 10.

With `CCCCOB(/C=C/Sc1ccccc1)OCCCC` the survivor count (T/C endpoint: median survival time, dose: 100.0 mg/kg/injection, schedule: Q01DX009 (ip), vehicle: saline with Tween-80, higher T/C = longer survival) was 9 of 10, the survivor count [5] was 9 of 10 and the survivor count (T/C endpoint: median survival time, dose: 400.0 mg/kg/injection, schedule: Q01DX009 (ip), vehicle: saline with Tween-80, higher T/C = longer survival) was 10 of 10.

With `CNC1=C(N2CC2)C(=O)C(NC)=C(N2CC2)C1=O` the T/C (T/C endpoint: median survival time, dose: 0.05 mg/kg/injection, schedule: Q01DX009 (ip), vehicle: saline, higher T/C = longer survival) was 132 % of control.

With `CC1CN=C(C(=O)C(C)C2CCC3C4CC=C5CC(O)CCC5(C)C4CCC23C)C1` (stereo not given) the T/C (T/C endpoint: mean tumor weight, dose: 25.0 mg/kg/injection, schedule: Q01DX011 (sc), vehicle: steroid suspending solution, evaluated on day 12, higher T/C = larger tumour) was 125 % of control and the T/C (T/C endpoint: mean tumor weight, dose: 50.0 mg/kg/injection, schedule: Q01DX011 (sc), vehicle: steroid suspending solution, evaluated on day 12, higher T/C = larger tumour) was 137 % of control.

`CC(C)CCCCCCCCCCCCC(=O)NCC(=O)NC1C(O)C(O)C(Nc2ncnc3nc[nH]c23)OC1C(O)CO` (stereo not given) was tested, and the survivor count (T/C endpoint: mean tumor weight, dose: 2.0 mg/kg/injection, schedule: Q01DX011 (ip), vehicle: saline, higher T/C = larger tumour) was 0 of 6.

With `CCCCn1cnc2c(SC)ncnc21` the survivor count (T/C endpoint: median survival time, dose: 12.5 mg/kg/injection, schedule: Q01DX009 (ip), vehicle: saline with Tween-80, higher T/C = longer survival) was 10 of 10 and the survivor count [5] was 0 of 10.

With `COc1cc(OC)c(OC)cc1/C=C\c1ccnc2ccccc12` the survivor count (T/C endpoint: median survival time, dose: 200.0 mg/kg/injection, schedule: Q01DX009 (ip), vehicle: Klucel (hydroxypropylcellulose) (HPC), higher T/C = longer survival) was 10 of 10.
